# Data source: PubChem BioAssay AID686938 (Drosophila RNAi Screening Center, 2013)
# Test: 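Fly genes required for calcium entry once internal stores are emptied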 (primary screen)
# System: Drosophila S2R+ cells
# Knock-down reagent: long dsRNA against Drosophila genes, about 0.25 µg dsRNA per well, roughly 10,000 cells
# Duration: 5 days of knock-down before the calcium assay
# Treatment: thapsigargin (SERCA pump blocker) to empty calcium stores; entry signal taken 4 min after adding it
# Measurement: 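Duplicate raw fluo-4 intensities per well from a plate reader, at rest and four minutes after thapsigargin emptied calcium stores; entry-to-rest ratio filled for only some wells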
# Scale: calcium entry signal: higher = stronger calcium signal after store depletion; entry to resting ratio: higher = more calcium entry relative to resting level; resting calcium signal: higher = higher resting calcium signal
# Call rule: 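Hit if the duplicate-averaged plate z-score for entry over resting signal is under −3; wells with weak total dye signal (Fmax z < −2) or more than 5 off-targets removed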
# Meaning of the calls: active = strongly reduced calcium entry; inactive = no strong reduction
# In all, the deposit lists about 23,000 reagents; below is an unselected part of those that have a named target and a result. Of all reagents, 75 (0.33%) were called active. 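Raw plate signals without normalisation; calls rest on plate z-scores that were not deposited; ratio present for only 364 wells.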 The numbers tell different reagents against one gene apart. No sequences are given here. Not given: the dose of the treatment.
target gene,reagent no.,"calcium entry signal, replicate 1 (fluorescence units)","calcium entry signal, replicate 2 (fluorescence units)",entry to resting ratio,"resting calcium signal, replicate 1 (fluorescence units)","resting calcium signal, replicate 2 (fluorescence units)",Outcome
CG3408 (GeneID 39107),1,2.69e7,3.51e7,,1.30e7,1.36e7,inactive
Hsc70-1 (GeneID 39542),1,2.26e7,2.27e7,,1.29e7,1.14e7,inactive
hoip (GeneID 44173),1,1.60e7,1.41e7,,1.19e7,1.01e7,inactive
CG9628 (GeneID 39593),1,3.06e7,4.64e7,,1.49e7,3.08e7,inactive
GstD2 (GeneID 48335),1,3.49e7,3.00e7,,1.61e7,1.51e7,inactive
Liprin-gamma (GeneID 37552),1,5.59e7,3.44e7,,2.75e7,1.79e7,inactive
CG33453 (GeneID 2768851),1,3.89e7,3.92e7,,1.81e7,2.01e7,inactive
chic (GeneID 33834),1,3.41e7,4.04e7,,1.82e7,2.00e7,inactive
Cad88C (GeneID 41774),1,2.91e7,3.92e7,,1.54e7,6.84e7,inactive
CG9121 (GeneID 33732),1,4.15e7,4.12e7,,2.03e7,1.83e7,inactive
CG8892 (GeneID 33719),1,3.90e7,,,2.05e7,,inactive
SCaMC (GeneID 39415),1,4.53e7,4.25e7,,3.19e7,1.79e7,inactive
SCaMC (GeneID 39415),2,3.15e7,3.14e7,,1.61e7,1.41e7,inactive
CG12104 (GeneID 38187),1,3.02e7,3.03e7,,1.44e7,1.61e7,inactive
CG1840 (GeneID 32150),1,2.62e7,2.82e7,,1.39e7,1.47e7,inactive
CG4250 (GeneID 37599),1,3.87e7,3.56e7,,1.91e7,1.66e7,inactive
corn (GeneID 38786),1,4.73e7,3.23e7,,3.12e7,1.43e7,inactive
corn (GeneID 38786),2,3.84e7,5.34e7,,1.91e7,3.11e7,inactive
CG4116 (GeneID 31291),1,4.64e7,6.60e7,1.9,2.42e7,2.60e7,inactive
Kots (GeneID 41702),1,2.94e7,3.13e7,,1.33e7,1.45e7,inactive

Individual results from above.
Result of Liprin-gamma (GeneID 37552) in “calcium entry signal, replicate 2 (fluorescence units)”: 3.44e7
Value of CG9121 (GeneID 33732) in “Outcome”: inactive
Hsc70-1 (GeneID 39542), resting calcium signal, replicate 1 (fluorescence units) → 1.29e7
Value of hoip (GeneID 44173) under “resting calcium signal, replicate 1 (fluorescence units)”: 1.19e7
CG9628 (GeneID 39593), resting calcium signal, replicate 2 (fluorescence units): 3.08e7
Result for CG33453 (GeneID 2768851) under “resting calcium signal, replicate 2 (fluorescence units)”: 2.01e7

Next records:
target gene,reagent no.,"calcium entry signal, replicate 1 (fluorescence units)","calcium entry signal, replicate 2 (fluorescence units)",entry to resting ratio,"resting calcium signal, replicate 1 (fluorescence units)","resting calcium signal, replicate 2 (fluorescence units)",Outcome
CG4691 (GeneID 34856),1,4.64e7,,,2.02e7,,inactive
CG30411 (GeneID 246600),1,2.18e7,3.26e7,,1.12e7,1.44e7,inactive
lncRNA:CR43421 (GeneID 12798123),1,2.65e7,6.33e7,,1.25e7,3.03e7,inactive
CG18746 (GeneID 59142),1,4.84e7,4.97e7,,2.02e7,2.12e7,inactive
CG34051 (GeneID 3885660),1,1.66e7,3.94e7,,7.85e6,2.21e7,inactive
Ugt37A1 (GeneID 35307),1,6.98e7,4.86e7,,3.33e7,2.04e7,inactive
Eip63E (GeneID 38433),1,4.30e7,3.33e7,,2.66e7,1.49e7,inactive
CG16739 (GeneID 37307),1,4.12e7,4.69e7,,1.79e7,2.12e7,inactive
Prosalpha3T (GeneID 43679),1,4.60e7,5.25e7,,2.27e7,2.22e7,inactive
Or9a (GeneID 31975),1,2.93e7,4.96e7,,1.49e7,2.36e7,inactive
CG8405 (GeneID 36772),1,1.55e7,4.36e7,,8.32e6,2.59e7,inactive
CG8405 (GeneID 36772),2,3.64e7,4.02e7,,1.52e7,1.78e7,inactive
eas (GeneID 32585),1,3.93e7,3.08e7,,2.07e7,1.42e7,inactive
CG14450 (GeneID 40490),1,2.18e7,3.00e7,,1.16e7,1.42e7,inactive
Osi9 (GeneID 40763),1,4.43e7,2.35e7,,2.24e7,1.20e7,inactive
mrva (GeneID 38808),1,4.34e7,5.04e7,,3.08e7,2.59e7,inactive
mrva (GeneID 38808),2,2.17e7,5.16e7,,1.04e7,2.23e7,inactive
CG30083 (GeneID 246444),1,5.23e7,5.01e7,,2.44e7,2.24e7,inactive
shep (GeneID 38605),1,2.98e7,4.38e7,,1.59e7,2.33e7,inactive
shep (GeneID 38605),2,3.29e7,6.20e7,,1.58e7,2.64e7,inactive
shep (GeneID 38605),3,4.71e7,4.97e7,,2.81e7,2.03e7,inactive
